In this assay the test system is SARS-CoV-2. Kind of assay: microbe, parasite or virus in culture. The class given is functional, organism-based, Chlorocebus sabaeus. As to conditions: Severe acute respiratory syndrome coronavirus 2, Vero C1008, 48 h.

Our source for the IC50 values is ChEMBL document CHEMBL4495565, “Cytopathic SARS-Cov2 screening on VERO-E6 cells in a large repurposing effort” (2020).

Each structure is given as a SMILES string.

In the case of `Nc1ccc(C(=O)Nc2cccc(-c3nc(N4CCOCC4)c4oc5ncccc5c4n3)c2)cn1`, the IC50 (as a rule, the midpoint of a concentration-inhibition curve) was 4.73 µM.
